Test results reported in the supplement of paper PMC10849652.
This is one part of the list.

By UniProt entry, the sequences of proteins in these tests, tags left out. Where a name states a change or a piece, a line headed by the entry shows the natural chain unless it says otherwise.
UniProt Q8N9V3: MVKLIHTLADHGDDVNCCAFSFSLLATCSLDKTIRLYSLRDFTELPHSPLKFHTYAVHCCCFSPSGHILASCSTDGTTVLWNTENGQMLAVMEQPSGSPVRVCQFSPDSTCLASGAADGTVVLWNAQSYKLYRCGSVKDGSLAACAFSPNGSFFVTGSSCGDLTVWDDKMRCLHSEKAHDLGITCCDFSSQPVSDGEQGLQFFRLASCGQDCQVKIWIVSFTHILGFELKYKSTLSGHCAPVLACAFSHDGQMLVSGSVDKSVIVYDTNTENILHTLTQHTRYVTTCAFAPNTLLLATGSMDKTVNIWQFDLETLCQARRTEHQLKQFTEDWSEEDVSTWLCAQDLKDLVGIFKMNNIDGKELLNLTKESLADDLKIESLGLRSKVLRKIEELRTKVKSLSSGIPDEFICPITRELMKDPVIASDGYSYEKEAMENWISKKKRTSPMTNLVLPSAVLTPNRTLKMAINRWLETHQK
UniProt Q5JSH3: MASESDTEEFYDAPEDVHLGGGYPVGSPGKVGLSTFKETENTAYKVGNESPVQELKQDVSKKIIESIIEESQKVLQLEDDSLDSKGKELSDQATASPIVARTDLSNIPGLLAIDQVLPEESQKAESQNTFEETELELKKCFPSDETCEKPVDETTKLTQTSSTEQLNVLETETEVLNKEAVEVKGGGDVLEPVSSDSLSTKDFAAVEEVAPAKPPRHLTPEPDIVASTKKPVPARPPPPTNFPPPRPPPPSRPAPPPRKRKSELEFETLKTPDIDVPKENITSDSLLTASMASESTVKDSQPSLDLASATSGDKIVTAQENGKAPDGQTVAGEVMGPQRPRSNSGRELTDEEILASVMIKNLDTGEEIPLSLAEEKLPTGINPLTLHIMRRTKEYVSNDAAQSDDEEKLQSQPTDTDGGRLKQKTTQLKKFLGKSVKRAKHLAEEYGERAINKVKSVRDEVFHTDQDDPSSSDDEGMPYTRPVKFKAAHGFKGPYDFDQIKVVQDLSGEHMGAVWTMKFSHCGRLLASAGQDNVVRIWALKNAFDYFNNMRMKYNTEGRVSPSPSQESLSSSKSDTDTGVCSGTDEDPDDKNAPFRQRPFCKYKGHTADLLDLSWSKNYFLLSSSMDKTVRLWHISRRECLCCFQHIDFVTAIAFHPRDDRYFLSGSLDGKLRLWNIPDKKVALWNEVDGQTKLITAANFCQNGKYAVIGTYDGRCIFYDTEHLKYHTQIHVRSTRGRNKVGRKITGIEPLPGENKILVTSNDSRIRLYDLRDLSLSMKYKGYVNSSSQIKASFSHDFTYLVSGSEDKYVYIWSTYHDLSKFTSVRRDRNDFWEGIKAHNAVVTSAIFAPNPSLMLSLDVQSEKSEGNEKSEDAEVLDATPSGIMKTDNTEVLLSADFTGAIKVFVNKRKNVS
UniProt Q8IWB7: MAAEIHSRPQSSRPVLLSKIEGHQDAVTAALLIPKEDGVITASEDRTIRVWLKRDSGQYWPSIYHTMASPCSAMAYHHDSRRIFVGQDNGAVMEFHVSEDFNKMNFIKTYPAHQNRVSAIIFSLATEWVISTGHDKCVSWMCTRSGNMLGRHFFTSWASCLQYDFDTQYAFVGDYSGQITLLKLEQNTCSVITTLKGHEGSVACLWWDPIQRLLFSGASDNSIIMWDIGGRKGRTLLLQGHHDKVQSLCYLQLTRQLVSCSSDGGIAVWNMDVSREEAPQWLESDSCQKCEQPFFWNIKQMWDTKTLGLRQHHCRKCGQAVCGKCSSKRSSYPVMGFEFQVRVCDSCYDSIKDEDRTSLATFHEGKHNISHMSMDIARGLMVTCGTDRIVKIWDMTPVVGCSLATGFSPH
UniProt P45880: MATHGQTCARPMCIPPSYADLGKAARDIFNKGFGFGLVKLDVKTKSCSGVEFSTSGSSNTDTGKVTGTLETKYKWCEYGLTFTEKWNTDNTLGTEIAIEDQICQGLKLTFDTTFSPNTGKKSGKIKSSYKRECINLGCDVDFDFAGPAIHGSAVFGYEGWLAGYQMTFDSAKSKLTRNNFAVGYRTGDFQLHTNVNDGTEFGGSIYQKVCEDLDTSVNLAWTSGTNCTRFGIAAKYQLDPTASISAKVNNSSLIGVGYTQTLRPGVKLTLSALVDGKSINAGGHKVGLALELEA
UniProt Q96GC9: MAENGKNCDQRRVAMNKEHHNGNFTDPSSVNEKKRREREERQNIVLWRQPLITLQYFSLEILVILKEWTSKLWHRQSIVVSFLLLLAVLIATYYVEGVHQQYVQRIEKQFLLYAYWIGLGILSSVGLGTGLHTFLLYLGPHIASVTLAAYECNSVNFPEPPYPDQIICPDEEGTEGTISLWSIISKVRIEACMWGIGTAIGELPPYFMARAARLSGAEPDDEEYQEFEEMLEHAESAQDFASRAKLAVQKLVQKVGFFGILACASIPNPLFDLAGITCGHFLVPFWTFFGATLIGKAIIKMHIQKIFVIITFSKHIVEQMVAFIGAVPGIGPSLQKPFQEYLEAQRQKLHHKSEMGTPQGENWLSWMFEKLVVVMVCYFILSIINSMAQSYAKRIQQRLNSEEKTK
UniProt Q9HAD4: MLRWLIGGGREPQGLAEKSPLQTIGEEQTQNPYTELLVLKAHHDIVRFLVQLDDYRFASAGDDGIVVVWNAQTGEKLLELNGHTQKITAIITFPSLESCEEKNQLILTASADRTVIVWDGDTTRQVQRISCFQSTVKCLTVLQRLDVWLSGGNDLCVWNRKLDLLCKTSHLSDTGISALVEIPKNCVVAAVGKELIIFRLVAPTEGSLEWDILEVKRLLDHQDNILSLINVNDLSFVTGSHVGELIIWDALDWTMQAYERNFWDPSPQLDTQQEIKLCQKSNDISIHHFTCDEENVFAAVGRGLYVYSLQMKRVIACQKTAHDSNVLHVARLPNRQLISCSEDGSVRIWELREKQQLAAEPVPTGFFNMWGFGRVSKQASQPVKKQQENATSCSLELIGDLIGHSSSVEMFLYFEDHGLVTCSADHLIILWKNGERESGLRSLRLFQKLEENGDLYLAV
UniProt Q96JC1: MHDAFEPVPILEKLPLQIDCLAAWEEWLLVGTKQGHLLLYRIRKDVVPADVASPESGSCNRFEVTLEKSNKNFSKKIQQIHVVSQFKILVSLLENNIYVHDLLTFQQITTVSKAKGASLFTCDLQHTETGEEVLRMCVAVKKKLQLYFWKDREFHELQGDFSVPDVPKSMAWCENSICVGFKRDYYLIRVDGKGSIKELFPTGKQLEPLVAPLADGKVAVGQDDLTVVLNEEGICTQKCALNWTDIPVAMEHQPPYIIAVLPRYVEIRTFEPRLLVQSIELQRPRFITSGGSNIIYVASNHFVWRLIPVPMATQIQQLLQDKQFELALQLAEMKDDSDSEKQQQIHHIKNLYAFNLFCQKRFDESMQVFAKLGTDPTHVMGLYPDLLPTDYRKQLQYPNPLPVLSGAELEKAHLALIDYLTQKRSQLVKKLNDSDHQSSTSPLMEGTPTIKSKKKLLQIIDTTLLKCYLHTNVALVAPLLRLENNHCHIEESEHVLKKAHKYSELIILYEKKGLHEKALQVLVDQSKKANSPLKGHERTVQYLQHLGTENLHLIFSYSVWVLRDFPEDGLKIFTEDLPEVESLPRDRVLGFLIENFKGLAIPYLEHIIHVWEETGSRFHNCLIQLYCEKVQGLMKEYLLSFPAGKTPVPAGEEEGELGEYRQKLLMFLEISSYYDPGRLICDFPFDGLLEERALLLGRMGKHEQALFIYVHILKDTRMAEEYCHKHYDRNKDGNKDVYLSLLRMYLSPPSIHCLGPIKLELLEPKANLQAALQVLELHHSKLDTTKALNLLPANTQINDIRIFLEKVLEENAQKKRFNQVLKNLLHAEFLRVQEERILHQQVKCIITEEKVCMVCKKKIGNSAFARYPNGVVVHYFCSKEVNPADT
UniProt Q9Y277: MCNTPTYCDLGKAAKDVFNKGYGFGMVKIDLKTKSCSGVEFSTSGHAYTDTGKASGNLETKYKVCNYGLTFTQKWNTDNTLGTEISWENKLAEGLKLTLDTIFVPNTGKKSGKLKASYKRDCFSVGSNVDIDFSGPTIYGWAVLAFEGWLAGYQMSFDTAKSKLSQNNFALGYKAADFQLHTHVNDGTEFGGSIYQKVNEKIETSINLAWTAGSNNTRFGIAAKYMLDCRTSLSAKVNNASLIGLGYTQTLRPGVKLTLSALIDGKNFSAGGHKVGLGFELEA
UniProt Q9NRW7: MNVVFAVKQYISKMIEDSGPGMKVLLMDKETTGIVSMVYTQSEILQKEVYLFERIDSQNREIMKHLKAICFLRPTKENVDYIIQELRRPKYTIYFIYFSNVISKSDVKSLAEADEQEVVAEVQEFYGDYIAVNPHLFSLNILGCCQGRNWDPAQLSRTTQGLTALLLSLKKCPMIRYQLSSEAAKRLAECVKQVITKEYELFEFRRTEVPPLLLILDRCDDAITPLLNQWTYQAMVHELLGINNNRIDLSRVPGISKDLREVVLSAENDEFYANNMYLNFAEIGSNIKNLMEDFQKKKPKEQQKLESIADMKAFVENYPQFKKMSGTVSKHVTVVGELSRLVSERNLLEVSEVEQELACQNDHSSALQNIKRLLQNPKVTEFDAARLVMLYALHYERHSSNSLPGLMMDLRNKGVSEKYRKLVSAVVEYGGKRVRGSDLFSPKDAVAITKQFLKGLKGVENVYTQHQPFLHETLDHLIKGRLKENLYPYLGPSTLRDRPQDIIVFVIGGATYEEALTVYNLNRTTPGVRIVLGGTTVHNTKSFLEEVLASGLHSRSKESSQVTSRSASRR
UniProt Q6PJI9: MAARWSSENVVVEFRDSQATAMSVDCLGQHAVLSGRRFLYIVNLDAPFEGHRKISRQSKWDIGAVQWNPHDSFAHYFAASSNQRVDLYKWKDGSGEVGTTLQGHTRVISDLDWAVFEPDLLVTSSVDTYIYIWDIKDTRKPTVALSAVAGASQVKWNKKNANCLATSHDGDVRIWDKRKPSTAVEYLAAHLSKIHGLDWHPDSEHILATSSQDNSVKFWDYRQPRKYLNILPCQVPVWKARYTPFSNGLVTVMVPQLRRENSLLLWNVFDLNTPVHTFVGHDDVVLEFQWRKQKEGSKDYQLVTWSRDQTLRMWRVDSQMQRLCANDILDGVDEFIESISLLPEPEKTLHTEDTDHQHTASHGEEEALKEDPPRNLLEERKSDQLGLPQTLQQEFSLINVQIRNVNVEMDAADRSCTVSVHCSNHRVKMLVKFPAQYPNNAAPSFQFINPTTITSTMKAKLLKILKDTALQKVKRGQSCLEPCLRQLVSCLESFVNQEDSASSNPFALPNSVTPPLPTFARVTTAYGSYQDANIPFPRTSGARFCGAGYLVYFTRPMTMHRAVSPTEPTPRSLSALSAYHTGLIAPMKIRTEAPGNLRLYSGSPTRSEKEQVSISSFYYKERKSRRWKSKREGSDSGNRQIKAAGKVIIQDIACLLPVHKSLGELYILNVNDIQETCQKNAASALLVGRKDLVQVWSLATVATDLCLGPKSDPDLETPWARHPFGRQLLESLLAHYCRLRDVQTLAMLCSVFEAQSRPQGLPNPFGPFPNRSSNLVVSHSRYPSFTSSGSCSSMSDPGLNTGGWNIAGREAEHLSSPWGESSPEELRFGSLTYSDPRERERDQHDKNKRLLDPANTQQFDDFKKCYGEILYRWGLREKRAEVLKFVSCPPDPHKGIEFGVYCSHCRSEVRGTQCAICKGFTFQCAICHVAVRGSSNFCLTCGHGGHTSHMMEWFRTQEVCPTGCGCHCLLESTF
UniProt A6NGB9: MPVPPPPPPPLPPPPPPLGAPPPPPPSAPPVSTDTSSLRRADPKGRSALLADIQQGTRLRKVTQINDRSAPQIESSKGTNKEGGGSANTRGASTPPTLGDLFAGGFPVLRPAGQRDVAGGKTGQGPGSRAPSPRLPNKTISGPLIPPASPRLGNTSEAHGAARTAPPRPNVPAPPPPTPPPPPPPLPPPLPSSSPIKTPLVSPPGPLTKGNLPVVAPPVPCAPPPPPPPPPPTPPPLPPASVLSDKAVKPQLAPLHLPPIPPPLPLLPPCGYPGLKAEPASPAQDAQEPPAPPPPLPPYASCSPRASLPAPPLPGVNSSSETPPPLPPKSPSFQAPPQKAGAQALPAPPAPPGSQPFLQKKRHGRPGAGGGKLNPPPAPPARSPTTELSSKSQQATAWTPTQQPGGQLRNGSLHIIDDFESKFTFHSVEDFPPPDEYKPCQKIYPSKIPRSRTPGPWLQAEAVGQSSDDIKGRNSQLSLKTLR

Assays:
Assay in all cases: log2 fold change, soluble protein after heating vs DMSO (PISA); higher = thermal stabilisation; K562 cells, 10 uM, 30 min; active = over 0.2 and 3.5 SD of the protein, either way, in both replicates (recomputed)
[1] = compound: CC1=C(C=C(C=C1)NC(=O)C2=CC(=CC=C2)C(C)(C)C#N)NC3=CC4=C(C=C3)N=CN(C4=O)C
How it was run: (§1)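 K562 cells at 2×10^6 cells/mL were given 10 μM compound for 30 min. Aliquots then went through 3 min of heating across 48°C-58°C, were pooled, and were extracted in PBS with 0.5% NP-40 at 4°C, and the supernatant after 21,000xg for 90 min was quantified by TMTpro 16plex LC-MS/MS with channel sums equalised. Thermal stability relative to control samples, from duplicates, is given as log2 fold change.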

[2] = compound: CC1=C(C=C(C=C1)NC(=O)C2=CC(=CC=C2)N(C)C)NC(=O)C3=CC=C(C=C3)O
How it was run: as §1

[3] = compound: CC1=CC=C(C=C1)SC2=C3C=C(SC3=CN=C2)C(=O)N
How it was run: as §1

[4] = compound: CC1=NC(=CC=C1)C2=C(N=C(N2)C(C)(C)C)C3=CC4=NC=CN=C4C=C3
How it was run: as §1

[5] = compound: CCCCN(Cc1ccc(C(=O)NO)cc1)C(=O)Nc1ccccc1 [Nexturastat A]
How it was run: as §1

[6] = compound: CCCS(=O)(=O)Nc1ccc(F)c(C(=O)c2c[nH]c3ncc(-c4ccc(Cl)cc4)cc23)c1F [vemurafenib]
How it was run: as §1

[7] = compound: CCCS(=O)(=O)Nc1ccc(F)c(C(=O)c2c[nH]c3ncc(Cl)cc23)c1F
How it was run: as §1

[8] = compound: CCCc1cc(C)[nH]c(=O)c1CNC(=O)c1cc(-c2ccnc(N3CCN(C)CC3)c2)cc2c1cnn2C(C)C
How it was run: as §1

[9] = compound: CCN(CC)Cc1ccc2cc(COC(=O)Nc3ccc(C(=O)NO)cc3)ccc2c1 [givinostat]
How it was run: as §1

[10] = compound: CCN(CCCOc1ccc2c(Nc3cc(CC(=O)Nc4cccc(F)c4)[nH]n3)ncnc2c1)CCOP(=O)(O)O [barasertib]
How it was run: as §1

[11] = compound: CC[C@@H]1C(=O)N(C)c2cnc(Nc3ccc(C(=O)NC4CCN(C)CC4)cc3OC)nc2N1C1CCCC1
How it was run: as §1

[12] = compound: CC[C@@H]1C(=O)N(C)c2cnc(Nc3ccc(C(=O)N[C@H]4CC[C@H](N5CCN(CC6CC6)CC5)CC4)cc3OC)nc2N1C(C)C [volasertib]
How it was run: as §1

[13] = compound: CC[C@H](C)N1C=C(C2=C(C=C(C=C21)C3=CN=C(C=C3)N4CCNCC4)C(=O)NCC5=C(C=C(NC5=O)C)C)C
How it was run: as §1

[14] = compound: CC[C@H](C)[C@@H](C(=O)N[C@@H]([C@@H](C)O)C(=O)N[C@@H](CC(C)C)C(=O)[C@]1(CO1)C)NC(=O)[C@H]([C@@H](C)CC)N(C)C(=O)C [epoxomicin]
How it was run: as §1

[15] = compound: CCn1c(C(=O)N(C2CC2)C2CC2)cc2c3c(ncn3C)c(Nc3cc(C)n(C)n3)nc21
How it was run: as §1

[16] = compound: CCn1cc(-c2ccnc3[nH]c(-c4cccc(CN(C)C)c4)cc23)c(-c2ccc(NC(=O)N(C)C)cc2)n1
How it was run: as §1

[17] = compound: CN(C)CC(=O)Nc1ccc2[nH]c(=O)c3ccccc3c2c1
How it was run: as §1

[18] = compound: CN(CCOC1=CC=C(C=C1)C[C@H]2C(=O)NC(=O)S2)C3=CC=CC=N3 (racemic) [rosiglitazone]
How it was run: as §1

[19] = compound: CN1C2=C(C3=C1C(=O)N(N=C3)CC4=CC(=CC=C4)N)SC(=C2)S(=O)C
How it was run: as §1

[20] = compound: CN1CCC(CNc2ccc3ncc(-c4cccc(OC(F)(F)F)c4)n3n2)CC1
How it was run: as §1

Measured: log2 fold change

WIZ (UniProt O95785)
inactive: [1] -0.064 | [2] 0.069 | [3] -0.018 | [4] -0.006 | [5] 0.039 | [6] -0.013 | [7] -0.046 | [8] -0.025 | [9] 0.017 | [10] -0.026 | [11] 0.045 | [12] 0.016 | [13] 0.044 | [14] -0.026 | [15] 0.001 | [16] -0.022 | [17] -0.007 | [18] 0.058 | [19] 0.022 | [20] -0.126

WDSUB1 (UniProt Q8N9V3)
inactive: [1] -0.041 | [2] -0.003 | [3] 0.018 | [4] -0.001 | [5] -0.004 | [6] 0.009 | [7] 0.016 | [8] -0.086 | [9] -0.041 | [10] 0.025 | [11] -0.021 | [12] -0.105 | [13] 0.005 | [14] -0.001 | [15] -0.022 | [16] 0.015 | [17] 0.033 | [18] 0.031 | [19] -0.087 | [20] -0.044

WBP11 (UniProt Q9Y2W2)
inactive: [1] -0.049 | [2] -0.013 | [3] 0.009 | [4] 0.011 | [5] 0.016 | [6] 0.019 | [7] 0.014 | [8] -0.003 | [9] -0.013 | [10] -0.033 | [11] 0.012 | [12] -0.013 | [13] -0.024 | [14] 0 | [15] 0.006 | [16] -0.009 | [17] -0.03 | [18] -0.002 | [19] -0.027 | [20] 0.094

WDR44 (UniProt Q5JSH3)
inactive: [1] -0.008 | [2] 0 | [3] -0.025 | [4] -0.002 | [5] -0.026 | [6] -0.028 | [7] -0.005 | [8] -0.031 | [9] 0.01 | [10] -0.008 | [11] 0.012 | [12] -0.019 | [13] -0.014 | [14] 0.035 | [15] -0.001 | [16] -0.016 | [17] -0.012 | [18] 0.011 | [19] -0.056 | [20] -0.012

Reprinted at random: two records from the list.
WIZ (UniProt O95785)
inactive: [1] -0.064 | [2] 0.069 | [3] -0.018 | [4] -0.006 | [5] 0.039 | [6] -0.013 | [7] -0.046 | [8] -0.025 | [9] 0.017 | [10] -0.026 | [11] 0.045 | [12] 0.016 | [13] 0.044 | [14] -0.026 | [15] 0.001 | [16] -0.022 | [17] -0.007 | [18] 0.058 | [19] 0.022 | [20] -0.126

WDR44 (UniProt Q5JSH3)
inactive: [1] -0.008 | [2] 0 | [3] -0.025 | [4] -0.002 | [5] -0.026 | [6] -0.028 | [7] -0.005 | [8] -0.031 | [9] 0.01 | [10] -0.008 | [11] 0.012 | [12] -0.019 | [13] -0.014 | [14] 0.035 | [15] -0.001 | [16] -0.016 | [17] -0.012 | [18] 0.011 | [19] -0.056 | [20] -0.012

The listing continues.

WDFY1 (UniProt Q8IWB7)
inactive: [1] 0 | [2] 0.033 | [3] 0.025 | [4] -0.017 | [5] -0.002 | [6] -0.022 | [7] 0.03 | [8] -0.008 | [9] -0.03 | [10] 0.012 | [11] -0.031 | [12] -0.038 | [13] -0.033 | [14] 0.034 | [15] -0.027 | [16] 0.029 | [17] -0.02 | [18] -0.006 | [19] 0.009 | [20] -0.051

VDAC2 (UniProt P45880)
inactive: [1] 0.002 | [2] 0.018 | [3] 0.008 | [4] -0.002 | [5] -0.013 | [6] -0.031 | [7] -0.013 | [8] -0.011 | [9] -0.015 | [10] -0.026 | [11] 0.022 | [12] 0.049 | [13] -0.014 | [14] 0.002 | [15] 0.017 | [16] -0.017 | [17] -0.015 | [19] -0.031 | [20] 0.048

WDR20 isoform 7 (UniProt Q8TBZ3)
inactive: [1] 0.079 | [2] -0.007 | [3] -0.034 | [4] 0.01 | [5] 0.169 | [6] -0.012 | [7] -0.001 | [8] 0.085 | [9] -0.161 | [10] 0.254 | [11] 0.09 | [12] 0.095 | [13] 0.027 | [14] 0.018 | [15] -0.041 | [16] -0.035 | [17] -0.005 | [18] -0.037 | [19] -0.092 | [20] -0.022

VMP1 (UniProt Q96GC9)
inactive: [1] 0.18 | [2] -0.031 | [3] 0.011 | [4] -0.006 | [5] 0.033 | [6] -0.001 | [7] -0.038 | [8] -0.098 | [9] -0.031 | [10] -0.029 | [11] 0.033 | [12] -0.009 | [13] -0.022 | [14] -0.055 | [15] 0.058 | [16] -0.076 | [17] -0.039 | [18] 0.012 | [19] -0.04 | [20] 0.034

WDR41 (UniProt Q9HAD4)
active: [12] -0.282
inactive: [1] 0.044 | [2] 0 | [3] -0.007 | [4] 0.001 | [5] 0.002 | [6] 0.008 | [7] 0.036 | [8] -0.011 | [9] -0.04 | [10] 0.033 | [11] -0.169 | [13] -0.056 | [14] 0.061 | [16] -0.043 | [17] 0.012 | [19] -0.076 | [20] -0.115

VPS39 (UniProt Q96JC1)
active: [12] -0.354
inactive: [1] 0.049 | [2] -0.015 | [3] 0.011 | [4] 0.031 | [5] 0.014 | [6] 0.041 | [7] 0.059 | [8] -0.029 | [9] 0.019 | [10] 0.053 | [11] -0.206 | [13] 0.054 | [14] -0.017 | [16] -0.091 | [17] 0.022 | [19] 0.008 | [20] -0.187

VPS26C (UniProt O14972)
inactive: [1] 0.062 | [2] 0 | [3] -0.05 | [4] -0.095 | [5] 0.048 | [6] -0.045 | [7] -0.009 | [8] 0.076 | [9] 0.016 | [10] 0.07 | [11] 0.061 | [12] -0.19 | [13] 0.01 | [14] 0.022 | [15] 0.15 | [16] -0.02 | [17] -0.052 | [18] 0.014 | [19] -0.001 | [20] -0.061

VDAC3 (UniProt Q9Y277)
inactive: [1] 0.005 | [2] -0.003 | [3] 0.026 | [4] -0.028 | [5] -0.012 | [6] -0.029 | [7] 0.002 | [8] -0.038 | [9] -0.012 | [10] -0.017 | [11] 0.036 | [12] 0.023 | [13] -0.032 | [14] -0.013 | [15] 0.034 | [16] -0.025 | [17] 0.031 | [19] -0.063 | [20] 0.05

WASHC4 (UniProt Q2M389)
inactive: [1] 0.019 | [2] -0.037 | [3] 0 | [4] 0.035 | [5] -0.007 | [6] -0.008 | [7] -0.088 | [8] 0.03 | [9] 0.103 | [10] 0.035 | [11] -0.001 | [12] -0.228 | [13] 0.271 | [14] -0.057 | [15] -0.004 | [16] -0.02 | [17] 0.065 | [18] 0.1 | [19] 0.063 | [20] -0.273

VPS45 (UniProt Q9NRW7)
inactive: [1] -0.033 | [2] -0.052 | [3] 0.011 | [4] 0.008 | [5] 0.061 | [6] 0.041 | [7] 0.048 | [8] 0.042 | [9] 0.058 | [10] -0.027 | [11] -0.04 | [12] -0.193 | [13] 0.006 | [14] -0.012 | [15] -0.093 | [16] -0.031 | [17] 0.045 | [18] 0.018 | [19] -0.006 | [20] -0.024

WDR59 (UniProt Q6PJI9)
inactive: [1] 0.019 | [2] -0.066 | [3] -0.058 | [4] -0.004 | [5] 0.238 | [6] -0.052 | [7] -0.06 | [8] 0.097 | [9] 0.015 | [10] 0.019 | [11] -0.017 | [12] -0.033 | [13] -0.101 | [14] 0.255 | [15] -0.006 | [16] -0.008 | [17] -0.021 | [18] 0.067 | [19] 0.061 | [20] 0.062

WIPF3 (UniProt A6NGB9)
inactive: [1] 0.026 | [2] -0.022 | [3] 0.042 | [4] -0.058 | [5] -0.082 | [6] 0.054 | [7] 0.02 | [8] -0.086 | [9] 0.011 | [10] 0.01 | [11] 0.008 | [12] 0.082 | [13] -0.01 | [14] 0.054 | [15] -0.048 | [16] -0.03 | [17] -0.009 | [18] 0.013 | [19] -0.022 | [20] 0.232
